Results reported in PubChem BioAssay AID540276 (National Center for Advancing Translational Sciences (NCATS), 2011).
The whole screen tested about 300,000 compounds, of which about 5,400 (1.8%) were called active. Inconclusive results, whose numbers are uncertain, are shown with a selection of clear calls. Calls follow the shape of the full dose curve; tested in HEK293 cells. Potencies beside an inconclusive call are fits to weak or partial responses and may not hold up.

Assay: qHTS for inhibitors of binding or entry into cells for Marburg Virus
Details: Marburg virus pseudotyped entry inhibition, cell reporter; activity change, negative = inhibition: at 37.8 µM (top of the series) unless noted
% is scaled to controls: 0 for no effect and ±100 for the full control effect; potency is read from the fitted curve at half-maximal effect.

| SMILES | Potency | activity change, negative = inhibition |
| --- | --- | --- |
| CC(=O)N1CCCN(Cc2cn(-c3ccc(C)cc3)nc2-c2ccc(F)cc2)CC1 | inconclusive: 35.5 µM [inhibitor, partial curve, poor fit] | – |
| CN1CCN(C(=O)CCNC(=O)Cn2ccc3ccccc3c2=O)CC1 | inconclusive: 6.51 µM [activator, single point] | – |
| O=C(CN1C(=O)C2(OCCO2)c2cc(Br)ccc21)NO | inconclusive: 7.08 µM [inhibitor, full curve, poor fit] | – |
| O=C(c1cccc(C(F)(F)F)c1)C1CCCN(Cc2cccn2-c2ccccn2)C1 (centres undefined) | inconclusive: 5.62 µM [inhibitor, full curve, poor fit] | – |
| C=C(C)C(=O)OC[C@@H]1CN2[C@@H](CC[C@@H](C)[C@@H]2c2ccc(Br)cc2)C(=O)O1 | inconclusive: 4.73 µM [activator, single point] | – |
| COc1ccc2nc(C)cc(SCC(=O)NNC(=O)COc3ccccc3)c2c1 | – | inactive: -15.3% |
| COc1cc(OC)cc(C(=O)N[C@H](C(=O)NCc2ccc(F)cc2)C(C)C)c1 | inconclusive: 5.62 µM [activator, partial curve, poor fit] | – |
| COC(=O)c1ccc(OS(=O)(=O)c2ccc(NC(C)=O)cc2)cc1 | inconclusive: 0.631 µM [inhibitor, full curve] | – |
| Cc1cc(C)c(NC(=O)Cn2nnc(S(=O)(=O)c3ccc(C)c(C)c3)c2N)c(C)c1 | – | inactive: -19.4% [at 46.1 µM] |
| C[C@]12CCC(=O)C=C1CC[C@@H]1C2[C@@H](O)C[C@@]2(C)[C@H]1CC[C@]2(O)C(=O)CO (some centres undefined) | inconclusive: 11.2 µM [inhibitor, partial curve, poor fit] | – |
| O=C(COc1ccc2ccccc2c1)Nc1ccc(Cc2ccncc2)cc1 | inconclusive: 20.6 µM [inhibitor, single point] | – |
| COc1ccc(-c2cc(C(=O)N3CCN(c4ccccc4)CC3)no2)cc1 | inconclusive: 2 µM [activator, full curve, poor fit] | – |
| Cc1cc2c(ccc3c2no[n+]3[O-])nn1 | inconclusive: 35.5 µM [inhibitor, single point] | – |
| CC(=O)Nc1ccc(NC(=O)c2c(C)nn(Cc3ccccc3)c2Cl)cc1 | inconclusive: 20 µM [activator, partial curve, poor fit] | – |
| Cc1cc(NCc2ccccn2)n2ncc(-c3ccc(Cl)cc3)c2n1 | inconclusive: 28.2 µM [activator, partial curve, poor fit] | – |
| COc1ccc(C(=O)n2c(SC)nc3cc4c(cc32)OCCO4)cc1 | – | inactive: 27.8% |
| Cc1ccc(/C=C/c2nnc(-c3cccs3)o2)cc1 | active: 11.6 µM | – |
| CC(C(=O)N1CCN(c2ccc(Cl)cc2)CC1)c1ncc(C(F)(F)F)cc1Cl (centres undefined) | inconclusive: 23.1 µM [inhibitor, partial curve, poor fit] | – |
| Nc1ccccc1SCc1ccccc1Cl | inconclusive: 35.5 µM [activator, single point] | – |
| Cn1cccc1C(=O)C(=O)Nc1ccccc1C(F)(F)F | inconclusive: 11.2 µM [activator, partial curve, poor fit] | – |
| CN1C(C(=O)Nc2cccc(O)c2)=CC(c2ccco2)=NS1(=O)=O | inconclusive: 1.78 µM [inhibitor, partial curve, poor fit] | – |
| COc1cc(C)c(C(=O)CSc2nnc(CNC(=O)c3ccco3)n2C)cc1C | – | inactive: 1.53% [at 46.1 µM] |

| SMILES | Potency | activity change, negative = inhibition |
| --- | --- | --- |
| CN1C(=O)C2(C(C#N)=C(N)Oc3n[nH]c(-c4ccc(Cl)cc4)c32)c2ccccc21 (centres undefined) | inconclusive: 35.5 µM [inhibitor, partial curve, poor fit] | – |
| N#Cc1c(-c2ccco2)cc(-c2ccccn2)nc1N | inconclusive: 2.82 µM [activator, full curve, poor fit] | – |
| S=C1NC2=C(CCCC2)C2(CCCCC2)N1 | – | inactive: 9.62% |
| CCN(CC)C(=O)c1ccc(S(=O)(=O)N2CCC(c3nc4ccccc4s3)CC2)cc1 | inconclusive: 11.6 µM [inhibitor, partial curve, poor fit] | – |
| CC(OC(=O)C1=COCCO1)C(=O)Nc1cc(S(=O)(=O)N2CCCCC2)ccc1Cl (centres undefined) | inconclusive: 2.24 µM [inhibitor, single point] | – |
| CCN(Cc1ccccc1)Cc1c(O)ccc2oc(C)c(C(=O)Nc3ccc(C)cc3C)c12 | inconclusive: 12.6 µM [inhibitor, partial curve, poor fit] | – |
| COc1c(Cl)cc(Cl)cc1CNc1ccc(S(N)(=O)=O)cc1 | inconclusive: 35.5 µM [inhibitor, single point] | – |
| CCc1cc2c(CN(C)Cc3ccccc3F)cc(=O)oc2cc1O | inconclusive: 35.5 µM [inhibitor, single point] | – |
| O=C(NCCc1ccc(Cl)cc1)c1ccc2c(c1)N(Cc1ccc(Cl)cc1)C(=O)CS2 | inconclusive: 35.5 µM [inhibitor, single point] | – |
| C=Cc1ccc(Cn2c(=O)n(-c3cccc(Cl)c3)c(=O)c3c4c(sc32)CN(C(C)=O)CC4)cc1 | – | inactive: 26.8% [at 46.1 µM] |
| Brc1c(CSc2nncn2-c2ccccc2)nc2sccn12 | inconclusive: 1.16 µM [activator, single point] | – |
| CC(=O)c1ccc(NC(=S)NCc2cccnc2)cc1 | – | inactive: -16.6% [at 46.1 µM] |
| CCCc1cc(-c2nc(N)ncc2-c2ccc3c(c2)OCCCO3)c(O)cc1OC | inconclusive: 22.4 µM [inhibitor, single point] | – |
| COc1ccc(S(=O)(=O)N2CCCN(S(=O)(=O)c3ccc(OC)c(C)c3)CC2)cc1C | inconclusive: 20.6 µM [inhibitor, single point] | – |
| Cc1cc(/C=C2/SC(=S)N(c3ccc([N+](=O)[O-])cc3)C2=O)c(C)n1-c1cccnc1 | – | inactive: -25.6% |
| CC(C)C(NS(=O)(=O)c1cccc(C(F)(F)F)c1)C(=O)N1CCc2ccccc2C1 (centres undefined) | inconclusive: 8.91 µM [inhibitor, partial curve, poor fit] | – |
| O=C(CC1SC(N2CCCC2)=NC1=O)Nc1ccc(C(=O)NCCc2ccc(F)cc2)cc1 (centres undefined) | – | inactive: 16.2% |
| Cc1ccc(S(=O)(=O)c2ccc(Cl)cc2)cc1S(=O)(=O)N1CCN(C)CC1 | inconclusive: 23.1 µM [inhibitor, single point] | – |
| O=C(CSc1ccc2nnc(-c3ccccn3)n2n1)Nc1ccccc1F | – | inactive: 5.68% |
| COc1cccc(/C=C2/CCC(CN(C)C)C2=O)c1 (centres undefined) | active: 11.2 µM | – |
| NC(=O)c1c(NC(=O)c2cc3ccccc3o2)sc2c1CCC2 | inconclusive: 10 µM [inhibitor, single point] | – |
| COc1ccc(O[C@H]2C=C[C@@H](c3ccccc3)O[C@@H]2COC(=O)CC/C(C)=N/O[C@@H](C)c2cn([C@H](CO)Cc3ccccc3)nn2)cc1 | inconclusive: 29.1 µM [inhibitor, single point] | – |

Compounds above with a cyano group, in the order listed:

| SMILES | Potency | activity change, negative = inhibition |
| --- | --- | --- |
| CN1C(=O)C2(C(C#N)=C(N)Oc3n[nH]c(-c4ccc(Cl)cc4)c32)c2ccccc21 (centres undefined) | inconclusive: 35.5 µM [inhibitor, partial curve, poor fit] | – |
| N#Cc1c(-c2ccco2)cc(-c2ccccn2)nc1N | inconclusive: 2.82 µM [activator, full curve, poor fit] | – |

Remaining list, next part.

| SMILES | Potency | activity change, negative = inhibition |
| --- | --- | --- |
| CCOC(=O)COc1ccc2ccccc2c1/C=C/[N+](=O)[O-] | active: 4.47 µM | – |
| CC(C)Cc1nc2oc3c(N4CCN(CCO)CC4)ncnc3c2c2c1CCCC2 | inconclusive: 29.1 µM [inhibitor, single point] | – |
| CN1CCN(c2cc(N3CCCCCC3)c(F)cc2[N+](=O)[O-])CC1 | inconclusive: 35.5 µM [inhibitor, partial curve, poor fit] | – |
| CCCCNC(=S)N/N=C1\C(=O)c2cccc3cccc1c23 | – | inactive: -12.4% |
| O=C(c1ccc(F)cc1)C(Cc1ccccc1)N1CCCCC1 (centres undefined) | – | inactive: -0.44% |
| CC(=O)c1c(C)[nH]c(C(=O)CSc2nnc3ccccn23)c1C | inconclusive: 2.82 µM [activator, full curve, poor fit] | – |
| Cc1ccccc1NC(=O)Cn1cc(C(=O)C2CC2)c2ccccc21 | inconclusive: 35.5 µM [inhibitor, single point] | – |
| COc1ccc2c(c1)c(=O)c(C(=O)c1ccc(F)cc1)cn2CC(=O)Nc1ccc2c(c1)OCO2 | – | inactive: -3.46% [at 46.1 µM] |
| CC(=O)c1cn(Cc2ccccc2)c(=O)n(Cc2ccc(F)cc2)c1=O | inconclusive: 35.5 µM [activator, single point] | – |
| CCc1c(C)nc2nncn2c1NCc1ccccc1 | – | inactive: -0.216% [at 46.1 µM] |
| COC(=O)c1c(N2C(=O)[C@H]3[C@@H](C2=O)[C@]2(C(=O)Nc4c2ccc(C)c4C)N2CCC[C@@H]32)sc(C)c1C | inconclusive: 6.31 µM [inhibitor, full curve, poor fit] | – |
| Cc1nc2ccc(NC(=O)c3ccc(S(=O)(=O)N(C)c4ccccc4)cc3)cc2s1 | inconclusive: 29.1 µM [inhibitor, single point] | – |
| COc1ccccc1-n1c(SCC(=O)NCc2ccc3c(c2)OCO3)nc2cc([N+](=O)[O-])ccc21 | – | inactive: 24.3% |
| O=C(Nc1ccc(-c2noc(CCc3ccccc3)n2)cc1)c1ccco1 | inconclusive: 11.2 µM [inhibitor, single point] | – |
| COc1ccc(CCNc2c3ccccc3nc3ccccc23)cc1OC | inconclusive: 10 µM [inhibitor, partial curve, poor fit] | – |
| C=CCN(c1ccccc1OC)S(=O)(=O)c1cccc(C(=O)OCC(=O)c2c[nH]c3ccccc23)c1 | inconclusive: 35.5 µM [inhibitor, single point] | – |
| CC(C)(C)NC(=O)CN1CCCN(C(=O)COc2ccc(Cl)c3ccccc23)CC1 | – | inactive: -2.04% |
| CN(Cc1ccccc1)S(=O)(=O)c1ccc(C(=O)Nc2nnc(C3CC3)o2)cc1 | inconclusive: 7.08 µM [inhibitor, partial curve] | – |
| CCc1nc(SCc2ccccc2C#N)n[nH]1 | – | inactive: 7.39% |
| COc1ccccc1N1CCN(C(=O)c2ccc3[nH]c4c(c3c2)CC(C)CC4)CC1 (centres undefined) | inconclusive: 12.6 µM [inhibitor, single point] | – |
